The nature of series [1]: Pharmacokinetic interaction study of glipizide with APE/AND in diabetic rats (streptozotocin/nicotinamide induced). The settings on record: diabetic versus normal rats.
Series [2] is described as follows: Pharmacokinetic interaction study of glipizide with APE/AND in normal rats.
The conditions of series [3]: freeze–thaw, room temperature, −80 °C (4 and 24 h), autosampler (24 h); %error ≤ 15 %, % CV ≤ 15%.
The mark [4] stands for this setting: male, Wistar, rat, plasma, po, 5 mg/kg.

What is called AUC(0-t) is the area under the concentration-time curve up to a stated or last time point. Low readings indicate less exposure, high ones more exposure. By Cmax is commonly meant the maximum level reached in the sampled fluid or tissue. As usually defined, the MRT inf is the average time that molecules of a dose stay in the body. A word on the Tmax: it is the time at which the peak concentration occurs.

`Cc1cnc(C(=O)NCCc2ccc(S(=O)(=O)NC(=O)NC3CCCCC3)cc2)cn1` [GLZ, glipizide]: the “Plasma concentration of glipizide in diabetic rats relative to normal rats” value in series [1] stood at 10 times. Further, in series [2] (setting [4]), the area under the curve AUC(0-t) is 25100 ng·h/mL, the peak level (Cmax) was 2040 ± 359 ng/mL, the mean residence time (MRT inf) was 19.3 ± 6.1 h and the Tmax was 5.6 ± 0.7 h. In addition, the “AUMC0–∞ of glipizide in plasma” value in series [2] (normal rats, GLZ 5 mg/kg BW oral on day 7, alone or after APE 300 mg/kg BW or AND 15 mg/kg BW for 7 days, mean ± SEM, NCA) was 637,882.6 ± 162,429 ng/mL·h^2. The “Stability of glipizide in plasma under storage conditions” value in series [3] is given as “No significant degradation was observed”.

(Values after publication PMC9609824 (Molecules, 2022).)
